Measurements reported in US8426148B2, “Label-free methods using a resonant waveguide grating biosensor to determine GPCR signaling pathways” (Corning Incorporated, priority 2007, dated 2013).
For at least one compound, name, drawing or mass did not settle the structure.

Experiments:
A2 adenosine receptor = assay: RWG biosensor DMR assay: forskolin pretreatment, then NECA-induced Gs response; type: cell-based, Human; settings: quiescent A431 cells; forskolin 5-690 nM for 1 h, then 100 nM NECA
[1] = test system: nicotinic acid receptor HM74 receptor; assay: RWG biosensor DMR assay: forskolin pretreatment, then nicotinic acid-induced Gi response; type: cell-based, Human; settings: quiescent A431 cells; forskolin 0-32,000 nM for 1 h, then 25 μM nicotinic acid; maximum at the EC50 of forskolin

Q: C=C[C@@]1(C)CC(=O)[C@]2(O)[C@@]3(C)[C@@H](O)CCC(C)(C)[C@@H]3[C@H](O)[C@H](OC(C)=O)[C@@]2(C)O1 [forskolin, Forskolin] was tested. Which “effect of forskolin pretreatment on NECA-induced response” value (A2 adenosine receptor) did it give?
A: attenuation of the NECA-induced responses

Q: And the “effect of forskolin pretreatment on nicotinic acid-induced Gi response” value [1]?
A: potentiation of the nicotinic acid-induced responses
